According to US20040044006A1, “Methods of use of quinolone compounds against pneumococcal and haemophilus bacteria” (priority 1999, published 2004):
The name of at least one read-out is uncertain.

Test system: penicillin susceptible and resistant pneumococcal strains (2 quinolone resistant)
Test: Time-kill testing of 12 pneumococcal strains
Type: cell-based, Streptococcus pneumoniae
Conditions: of 12 strains (macrolides 7)
Experimental: For time-kill studies, glass tubes containing 5 ml cation-adjusted Mueller-Hinton broth (Difco)+5% lysed horse blood with doubling antibiotic concentrations were inoculated with 5×10^5 to 5×10^6 cfu/ml and incubated at 35° C. in a shaking water bath. […] Growth controls with inoculum but no antibiotic were included with each experiment (Pankuch, et al., Antimicrob. Agents Chemother. 38:2065-2072, 1994; Pankuch, et al., Antimicrob. Agents Chemother. 40:1653-1656, 1996).
Lysed horse blood was prepared as described previously. The bacterial inoculum was prepared by diluting a 16 h broth (medium as above) culture in the same medium. Dilutions required to obtain the correct inoculum (5×10^5-5×10^6 cfu/ml) were determined by prior viability studies using each strain (Pankuch, et al., Antimicrob. Agents Chemother. 38:2065-2072, 1994; Pankuch, et al., Antimicrob. Agents Chemother. 40: 1653-1656, 1996).
To inoculate each tube of serially diluted antibiotic, 50 μl of diluted inoculum was delivered by pipette beneath the surface of the broth. Tubes were then vortexed and plated for viability counts within 10 min (approximately 0.2 h). The original inoculum was determined by using the untreated growth control. Only tubes containing an initial inoculum within the range of 5×10^5 to 5×10^6 cfu/ml were acceptable (Pankuch, et al., Antimicrob. Agents Chemother. 38:2065-2072, 1994; Pankuch, et al., Antimicrob. Agents Chemother. 40:1653-1656, 1996).
Viability counts of antibiotic-containing suspensions were performed by plating ten-fold dilutions of 0.1 ml aliquots from each tube in sterile Mueller-t-Hinton broth onto trypticase soy agar 5% sheep blood agar plates (BBL). Recovery plates were incubated for up to 72 h. Colony Counts were performed on plates yielding 30-300 colonies. The lower limit of sensitivity of colony counts was 300 cfu/ml (Pankuch, et al., Antimicrob. Agents Chemother. 38:2065-2072, 1994; Pankuch, et al., Antimicrob. Agents Chemother. 40:1653-1656, 1996).
Time-kill assays were analysed by determining the number of strains which yielded a log10 cfu/ml of −1, −2 and −3 at 0, 3, 6, 12 and 24 h, compared to counts at time 0 h. Antimicrobials were considered bactericidal at the lowest concentration that reduced the original inoculum by ≧3 log10 cfu/ml (99.9%) at each of the time periods, and bacteriostatic if the inoculum was reduced by 0-3 log10 cfu/ml. […] The problem of bacterial carryover was addressed as described previously. For macrolide time-kill testing, only strains with MICs≦4.0 μg/ml were tested (Pankuch, et al., Antimicrob. Agents Chemother. 38:2065-9072, 1994; Pankuch, et al., Antimicrob. Agents Chemother. 40:1653-1656, 1996).

SMILES: CC1(C)S[C@@H]2[C@H](NC(=O)[C@H](N)c3ccc(O)cc3)C(=O)N2[C@H]1C(=O)O [Amoxicillin, amoxicillin]
- No. strains −1 Log10 cfu/ml lower than 0 h (3 h, 0.25 × MIC): 0 No. strains
- No. strains −2 Log10 cfu/ml lower than 0 h (3 h, 0.25 × MIC): 0 No. strains
- No. strains −3 Log10 cfu/ml lower than 0 h (3 h, 0.25 × MIC): 0 No. strains
- No. strains −1 Log10 cfu/ml lower than 0 h (3 h, 0.5 × MIC): 0 No. strains
- No. strains −2 Log10 cfu/ml lower than 0 h (3 h, 0.5 × MIC): 0 No. strains
- No. strains −3 Log10 cfu/ml lower than 0 h (3 h, 0.5 × MIC): 0 No. strains
- No. strains −1 Log10 cfu/ml lower than 0 h (3 h, 2 × MIC): 6 No. strains
- No. strains −2 Log10 cfu/ml lower than 0 h (3 h, 2 × MIC): 2 No. strains
- No. strains −3 Log10 cfu/ml lower than 0 h (3 h, 2 × MIC): 0 No. strains
- No. strains −1 Log10 cfu/ml lower than 0 h (3 h, 4 × MIC): 7 No. strains
- No. strains −2 Log10 cfu/ml lower than 0 h (3 h, 4 × MIC): 2 No. strains
- No. strains −3 Log10 cfu/ml lower than 0 h (3 h, 4 × MIC): 0 No. strains
- No. strains −1 Log10 cfu/ml lower than 0 h (3 h, 8 × MIC): 9 No. strains
- No. strains −2 Log10 cfu/ml lower than 0 h (3 h, 8 × MIC): 4 No. strains
- No. strains −3 Log10 cfu/ml lower than 0 h (3 h, 8 × MIC): 0 No. strains
- No. strains −1 Log10 cfu/ml lower than 0 h (3 h, MIC): 4 No. strains
- No. strains −2 Log10 cfu/ml lower than 0 h (3 h, MIC): 0 No. strains
- No. strains −3 Log10 cfu/ml lower than 0 h (3 h, MIC): 0 No. strains
- No. strains −1 Log10 cfu/ml lower than 0 h (6 h, 0.25 × MIC): 0 No. strains
- No. strains −2 Log10 cfu/ml lower than 0 h (6 h, 0.25 × MIC): 0 No. strains
- No. strains −3 Log10 cfu/ml lower than 0 h (6 h, 0.25 × MIC): 0 No. strains
- No. strains −1 Log10 cfu/ml lower than 0 h (6 h, 0.5 × MIC): 0 No. strains
- No. strains −2 Log10 cfu/ml lower than 0 h (6 h, 0.5 × MIC): 0 No. strains
- No. strains −3 Log10 cfu/ml lower than 0 h (6 h, 0.5 × MIC): 0 No. strains
- No. strains −1 Log10 cfu/ml lower than 0 h (6 h, 2 × MIC): 11 No. strains
- No. strains −2 Log10 cfu/ml lower than 0 h (6 h, 2 × MIC): 5 No. strains
- No. strains −3 Log10 cfu/ml lower than 0 h (6 h, 2 × MIC): 1 No. strains
- No. strains −1 Log10 cfu/ml lower than 0 h (6 h, 4 × MIC): 12 No. strains
- No. strains −2 Log10 cfu/ml lower than 0 h (6 h, 4 × MIC): 7 No. strains
- No. strains −3 Log10 cfu/ml lower than 0 h (6 h, 4 × MIC): 0 No. strains
- No. strains −1 Log10 cfu/ml lower than 0 h (6 h, 8 × MIC): 11 No. strains
- No. strains −2 Log10 cfu/ml lower than 0 h (6 h, 8 × MIC): 8 No. strains
- No. strains −3 Log10 cfu/ml lower than 0 h (6 h, 8 × MIC): 3 No. strains
- No. strains −1 Log10 cfu/ml lower than 0 h (6 h, MIC): 6 No. strains
- No. strains −2 Log10 cfu/ml lower than 0 h (6 h, MIC): 1 No. strains
- No. strains −3 Log10 cfu/ml lower than 0 h (6 h, MIC): 0 No. strains
- No. strains −1 Log10 cfu/ml lower than 0 h (12 h, 0.25 × MIC): 0 No. strains
- No. strains −2 Log10 cfu/ml lower than 0 h (12 h, 0.25 × MIC): 0 No. strains
- No. strains −3 Log10 cfu/ml lower than 0 h (12 h, 0.25 × MIC): 0 No. strains
- No. strains −1 Log10 cfu/ml lower than 0 h (12 h, 0.5 × MIC): 1 No. strains
- No. strains −2 Log10 cfu/ml lower than 0 h (12 h, 0.5 × MIC): 1 No. strains
- No. strains −3 Log10 cfu/ml lower than 0 h (12 h, 0.5 × MIC): 0 No. strains
- No. strains −1 Log10 cfu/ml lower than 0 h (12 h, 2 × MIC): 12 No. strains
- No. strains −2 Log10 cfu/ml lower than 0 h (12 h, 2 × MIC): 11 No. strains
- No. strains −3 Log10 cfu/ml lower than 0 h (12 h, 2 × MIC): 8 No. strains
- No. strains −1 Log10 cfu/ml lower than 0 h (12 h, 4 × MIC): 12 No. strains
- No. strains −2 Log10 cfu/ml lower than 0 h (12 h, 4 × MIC): 12 No. strains
- No. strains −3 Log10 cfu/ml lower than 0 h (12 h, 4 × MIC): 9 No. strains
- No. strains −1 Log10 cfu/ml lower than 0 h (12 h, 8 × MIC): 12 No. strains
- No. strains −2 Log10 cfu/ml lower than 0 h (12 h, 8 × MIC): 12 No. strains
- No. strains −3 Log10 cfu/ml lower than 0 h (12 h, 8 × MIC): 10 No. strains
- No. strains −1 Log10 cfu/ml lower than 0 h (12 h, MIC): 7 No. strains
- No. strains −2 Log10 cfu/ml lower than 0 h (12 h, MIC): 6 No. strains
- No. strains −3 Log10 cfu/ml lower than 0 h (12 h, MIC): 2 No. strains
- No. strains −1 Log10 cfu/ml lower than 0 h (24 h, 0.25 × MIC): 1 No. strains
- No. strains −2 Log10 cfu/ml lower than 0 h (24 h, 0.25 × MIC): 0 No. strains
- No. strains −3 Log10 cfu/ml lower than 0 h (24 h, 0.25 × MIC): 0 No. strains
- No. strains −1 Log10 cfu/ml lower than 0 h (24 h, 0.5 × MIC): 3 No. strains
- No. strains −2 Log10 cfu/ml lower than 0 h (24 h, 0.5 × MIC): 2 No. strains
- No. strains −3 Log10 cfu/ml lower than 0 h (24 h, 0.5 × MIC): 1 No. strains
- No. strains −1 Log10 cfu/ml lower than 0 h (24 h, 2 × MIC): 12 No. strains
- No. strains −2 Log10 cfu/ml lower than 0 h (24 h, 2 × MIC): 12 No. strains
- No. strains −3 Log10 cfu/ml lower than 0 h (24 h, 2 × MIC): 12 No. strains
- No. strains −1 Log10 cfu/ml lower than 0 h (24 h, 4 × MIC): 12 No. strains
- No. strains −2 Log10 cfu/ml lower than 0 h (24 h, 4 × MIC): 12 No. strains
- No. strains −3 Log10 cfu/ml lower than 0 h (24 h, 4 × MIC): 12 No. strains
- No. strains −1 Log10 cfu/ml lower than 0 h (24 h, 8 × MIC): 12 No. strains
- No. strains −2 Log10 cfu/ml lower than 0 h (24 h, 8 × MIC): 12 No. strains
- No. strains −3 Log10 cfu/ml lower than 0 h (24 h, 8 × MIC): 12 No. strains
- No. strains −1 Log10 cfu/ml lower than 0 h (24 h, MIC): 10 No. strains
- No. strains −2 Log10 cfu/ml lower than 0 h (24 h, MIC): 9 No. strains
- No. strains −3 Log10 cfu/ml lower than 0 h (24 h, MIC): 7 No. strains
